Chains of the proteins cited; added tags and fusions are not shown.
UniProt Q92686, whole entry: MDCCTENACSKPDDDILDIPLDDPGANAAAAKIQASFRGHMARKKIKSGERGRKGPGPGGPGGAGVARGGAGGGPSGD

According to patent US20140045713:

What was measured:
[1] = target: Serum albumin (human albumin) (Homo sapiens) (UniProt P02768); assay: filter binding; conditions: 2'-F pyrimidines (2'-F-C, 2'-F-U) in the selection library; modification of the synthetic RNA not stated; no signal at any albumin amount; also negative control in pull-down; label: 3' biotin
[2] = target: Neurogranin (NRGN) (Homo sapiens) (UniProt Q92686); assay: filter binding; conditions: 2'-F pyrimidines (2'-F-C, 2'-F-U) in the selection library, modification of the synthetic RNA not stated, 20 mM Hepes pH 7.4, 150 mM NaCl, 2 mM CaCl2, 0.1% BSA, 37 C, purified recombinant protein, label: 3' biotin

Sequence	binding result [1]	binding result ([2]; minimum protein for dot-blot detection 1.25 pmol with 1 pmol RNA in 20 ul)	binding result ([2]; minimum protein for dot-blot detection 0.63 pmol with 1 pmol RNA in 20 ul)
UCUAACGCCUCCCGUAUGUUUUCCUUUUUCCAUUGCGGAU [NRGN-A1]	no binding	binds	
UUUUCAUUUUCAUUUUUUUCCAAAUCGAUCCGCCGGACCUUAU [NRGN-A6]	no binding		binds

For at least one entry, the source does not settle the construct or the ends of the probe. For some of these results: Negatives hold for the conditions tested.
